Results as given in the supplement of paper PMC10849652.
The other results are listed elsewhere or left out.

Protein sequences, listed by entry. Tags and fused reporters are not part of them. Lines headed by an entry give the natural chain unless they say otherwise; changes in a name come on top.
UniProt Q9HCM7, whole entry, looked up: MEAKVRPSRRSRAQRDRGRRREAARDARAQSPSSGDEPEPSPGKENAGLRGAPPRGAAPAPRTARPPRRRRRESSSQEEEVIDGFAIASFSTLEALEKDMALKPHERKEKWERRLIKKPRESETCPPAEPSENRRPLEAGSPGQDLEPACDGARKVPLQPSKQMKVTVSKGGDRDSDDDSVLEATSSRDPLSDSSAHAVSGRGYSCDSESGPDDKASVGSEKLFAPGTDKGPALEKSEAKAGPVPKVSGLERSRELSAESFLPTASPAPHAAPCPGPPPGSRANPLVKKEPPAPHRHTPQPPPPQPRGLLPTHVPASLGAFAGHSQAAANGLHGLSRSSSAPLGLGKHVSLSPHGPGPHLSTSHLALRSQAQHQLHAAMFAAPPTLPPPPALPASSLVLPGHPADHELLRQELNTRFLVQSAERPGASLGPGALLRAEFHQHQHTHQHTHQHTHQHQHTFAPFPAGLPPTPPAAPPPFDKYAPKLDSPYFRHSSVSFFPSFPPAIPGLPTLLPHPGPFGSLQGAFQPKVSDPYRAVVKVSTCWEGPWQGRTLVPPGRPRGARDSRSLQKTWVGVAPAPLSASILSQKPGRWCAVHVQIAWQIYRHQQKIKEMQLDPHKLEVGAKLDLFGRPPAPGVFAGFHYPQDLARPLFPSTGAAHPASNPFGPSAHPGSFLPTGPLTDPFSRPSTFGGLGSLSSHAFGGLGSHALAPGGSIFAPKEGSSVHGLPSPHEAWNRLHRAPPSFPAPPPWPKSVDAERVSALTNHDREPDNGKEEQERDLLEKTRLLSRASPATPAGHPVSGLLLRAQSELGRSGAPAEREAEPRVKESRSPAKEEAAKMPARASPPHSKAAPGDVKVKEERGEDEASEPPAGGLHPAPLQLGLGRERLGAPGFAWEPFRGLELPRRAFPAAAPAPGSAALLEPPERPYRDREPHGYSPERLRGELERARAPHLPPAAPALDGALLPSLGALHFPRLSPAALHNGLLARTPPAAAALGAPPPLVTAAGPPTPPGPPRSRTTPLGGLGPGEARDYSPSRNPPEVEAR
UniProt Q9NW38: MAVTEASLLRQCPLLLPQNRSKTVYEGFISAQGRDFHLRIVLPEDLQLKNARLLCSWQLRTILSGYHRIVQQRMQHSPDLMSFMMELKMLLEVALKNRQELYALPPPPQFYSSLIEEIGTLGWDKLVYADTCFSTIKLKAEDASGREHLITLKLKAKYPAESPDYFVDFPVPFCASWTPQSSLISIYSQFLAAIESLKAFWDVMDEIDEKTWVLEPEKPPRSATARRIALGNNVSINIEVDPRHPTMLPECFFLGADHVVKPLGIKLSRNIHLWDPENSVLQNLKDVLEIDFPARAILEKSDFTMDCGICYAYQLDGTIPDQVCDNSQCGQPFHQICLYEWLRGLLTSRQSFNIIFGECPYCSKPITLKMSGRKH
UniProt P0C5J1: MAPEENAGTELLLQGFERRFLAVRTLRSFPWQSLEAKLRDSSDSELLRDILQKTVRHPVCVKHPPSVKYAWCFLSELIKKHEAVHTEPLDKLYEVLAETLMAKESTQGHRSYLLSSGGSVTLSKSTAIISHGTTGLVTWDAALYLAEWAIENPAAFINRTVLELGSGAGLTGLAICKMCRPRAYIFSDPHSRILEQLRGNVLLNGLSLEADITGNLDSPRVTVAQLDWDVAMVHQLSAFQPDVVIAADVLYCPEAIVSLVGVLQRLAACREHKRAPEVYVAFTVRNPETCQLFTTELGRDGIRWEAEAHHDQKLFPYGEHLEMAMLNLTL
UniProt Q9UK22: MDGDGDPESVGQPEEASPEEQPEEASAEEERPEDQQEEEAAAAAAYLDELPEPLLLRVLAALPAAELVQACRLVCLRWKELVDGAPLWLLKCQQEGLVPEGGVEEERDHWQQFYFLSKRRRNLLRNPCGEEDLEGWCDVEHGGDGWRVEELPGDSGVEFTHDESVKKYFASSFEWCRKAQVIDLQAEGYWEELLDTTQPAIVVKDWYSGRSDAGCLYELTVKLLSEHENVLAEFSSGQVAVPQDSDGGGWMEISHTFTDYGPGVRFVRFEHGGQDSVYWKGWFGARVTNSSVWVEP
UniProt Q7Z6M2: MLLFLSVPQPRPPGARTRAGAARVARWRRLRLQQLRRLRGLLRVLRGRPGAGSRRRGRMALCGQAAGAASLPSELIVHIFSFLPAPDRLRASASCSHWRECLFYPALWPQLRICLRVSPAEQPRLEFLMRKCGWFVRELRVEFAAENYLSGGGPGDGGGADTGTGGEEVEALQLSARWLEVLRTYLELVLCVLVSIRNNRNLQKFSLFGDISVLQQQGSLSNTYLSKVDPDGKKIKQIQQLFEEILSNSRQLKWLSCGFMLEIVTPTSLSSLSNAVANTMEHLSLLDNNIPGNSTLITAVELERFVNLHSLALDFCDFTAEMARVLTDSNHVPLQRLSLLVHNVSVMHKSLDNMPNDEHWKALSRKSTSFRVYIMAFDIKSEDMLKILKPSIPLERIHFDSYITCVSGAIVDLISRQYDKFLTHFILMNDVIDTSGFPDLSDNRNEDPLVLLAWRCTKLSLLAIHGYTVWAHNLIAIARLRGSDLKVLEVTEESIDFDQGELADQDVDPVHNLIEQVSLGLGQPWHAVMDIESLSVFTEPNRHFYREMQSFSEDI
UniProt Q9NVK5: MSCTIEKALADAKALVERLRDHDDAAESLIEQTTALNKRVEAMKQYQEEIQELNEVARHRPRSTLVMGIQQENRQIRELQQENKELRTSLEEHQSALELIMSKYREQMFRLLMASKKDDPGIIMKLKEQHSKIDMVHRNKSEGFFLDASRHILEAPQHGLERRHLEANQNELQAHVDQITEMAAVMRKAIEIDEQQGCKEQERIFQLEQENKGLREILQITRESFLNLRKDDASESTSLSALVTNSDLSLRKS
UniProt Q5XKK7: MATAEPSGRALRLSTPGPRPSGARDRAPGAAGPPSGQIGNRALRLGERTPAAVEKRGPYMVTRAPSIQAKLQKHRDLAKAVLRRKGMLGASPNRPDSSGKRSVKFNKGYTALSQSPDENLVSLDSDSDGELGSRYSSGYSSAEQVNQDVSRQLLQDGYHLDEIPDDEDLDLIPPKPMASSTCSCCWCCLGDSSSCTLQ
UniProt Q92562: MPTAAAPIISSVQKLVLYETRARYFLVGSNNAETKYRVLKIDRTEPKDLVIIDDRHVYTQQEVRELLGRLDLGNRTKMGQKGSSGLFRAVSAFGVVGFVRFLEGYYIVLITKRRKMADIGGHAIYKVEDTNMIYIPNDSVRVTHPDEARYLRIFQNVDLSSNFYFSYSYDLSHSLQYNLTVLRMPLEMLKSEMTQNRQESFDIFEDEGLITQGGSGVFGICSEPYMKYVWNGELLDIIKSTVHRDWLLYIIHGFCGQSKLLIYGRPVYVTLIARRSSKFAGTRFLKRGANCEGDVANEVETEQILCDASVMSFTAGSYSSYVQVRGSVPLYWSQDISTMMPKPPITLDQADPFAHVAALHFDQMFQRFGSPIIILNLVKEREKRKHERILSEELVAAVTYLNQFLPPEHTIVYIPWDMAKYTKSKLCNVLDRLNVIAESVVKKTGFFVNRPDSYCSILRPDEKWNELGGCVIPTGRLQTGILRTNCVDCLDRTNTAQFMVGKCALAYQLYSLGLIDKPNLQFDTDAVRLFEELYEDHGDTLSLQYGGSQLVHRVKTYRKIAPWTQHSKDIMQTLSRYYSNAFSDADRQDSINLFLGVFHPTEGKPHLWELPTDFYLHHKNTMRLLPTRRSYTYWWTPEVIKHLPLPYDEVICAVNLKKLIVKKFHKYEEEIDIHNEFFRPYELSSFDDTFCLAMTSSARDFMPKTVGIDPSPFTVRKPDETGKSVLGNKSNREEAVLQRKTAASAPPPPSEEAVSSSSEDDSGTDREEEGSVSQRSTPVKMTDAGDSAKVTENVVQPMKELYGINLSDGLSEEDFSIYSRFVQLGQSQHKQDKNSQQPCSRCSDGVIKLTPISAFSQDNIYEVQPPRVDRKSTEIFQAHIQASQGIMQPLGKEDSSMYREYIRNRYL
UniProt Q8N0W7: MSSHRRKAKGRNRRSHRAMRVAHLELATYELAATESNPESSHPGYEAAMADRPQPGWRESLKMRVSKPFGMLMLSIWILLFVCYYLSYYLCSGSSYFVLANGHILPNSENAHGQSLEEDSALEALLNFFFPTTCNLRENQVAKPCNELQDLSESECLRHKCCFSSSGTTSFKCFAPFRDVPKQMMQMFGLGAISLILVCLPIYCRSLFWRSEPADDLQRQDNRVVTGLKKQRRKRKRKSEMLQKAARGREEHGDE
UniProt Q8NFG4: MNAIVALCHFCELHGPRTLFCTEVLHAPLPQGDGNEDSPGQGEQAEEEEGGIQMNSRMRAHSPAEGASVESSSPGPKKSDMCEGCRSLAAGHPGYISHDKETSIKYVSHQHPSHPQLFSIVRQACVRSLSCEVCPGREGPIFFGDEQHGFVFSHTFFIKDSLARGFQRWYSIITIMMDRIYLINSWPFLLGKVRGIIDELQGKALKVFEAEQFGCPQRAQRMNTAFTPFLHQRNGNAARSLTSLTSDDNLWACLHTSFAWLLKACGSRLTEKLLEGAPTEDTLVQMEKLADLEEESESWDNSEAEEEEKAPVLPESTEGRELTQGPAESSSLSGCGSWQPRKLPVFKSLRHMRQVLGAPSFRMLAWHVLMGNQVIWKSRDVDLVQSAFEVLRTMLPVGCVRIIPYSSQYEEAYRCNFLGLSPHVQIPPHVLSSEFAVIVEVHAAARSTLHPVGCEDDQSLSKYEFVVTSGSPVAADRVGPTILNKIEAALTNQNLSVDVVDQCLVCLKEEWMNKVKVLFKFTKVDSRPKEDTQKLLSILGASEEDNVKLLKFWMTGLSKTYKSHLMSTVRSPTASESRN
UniProt O95466, whole entry, looked up: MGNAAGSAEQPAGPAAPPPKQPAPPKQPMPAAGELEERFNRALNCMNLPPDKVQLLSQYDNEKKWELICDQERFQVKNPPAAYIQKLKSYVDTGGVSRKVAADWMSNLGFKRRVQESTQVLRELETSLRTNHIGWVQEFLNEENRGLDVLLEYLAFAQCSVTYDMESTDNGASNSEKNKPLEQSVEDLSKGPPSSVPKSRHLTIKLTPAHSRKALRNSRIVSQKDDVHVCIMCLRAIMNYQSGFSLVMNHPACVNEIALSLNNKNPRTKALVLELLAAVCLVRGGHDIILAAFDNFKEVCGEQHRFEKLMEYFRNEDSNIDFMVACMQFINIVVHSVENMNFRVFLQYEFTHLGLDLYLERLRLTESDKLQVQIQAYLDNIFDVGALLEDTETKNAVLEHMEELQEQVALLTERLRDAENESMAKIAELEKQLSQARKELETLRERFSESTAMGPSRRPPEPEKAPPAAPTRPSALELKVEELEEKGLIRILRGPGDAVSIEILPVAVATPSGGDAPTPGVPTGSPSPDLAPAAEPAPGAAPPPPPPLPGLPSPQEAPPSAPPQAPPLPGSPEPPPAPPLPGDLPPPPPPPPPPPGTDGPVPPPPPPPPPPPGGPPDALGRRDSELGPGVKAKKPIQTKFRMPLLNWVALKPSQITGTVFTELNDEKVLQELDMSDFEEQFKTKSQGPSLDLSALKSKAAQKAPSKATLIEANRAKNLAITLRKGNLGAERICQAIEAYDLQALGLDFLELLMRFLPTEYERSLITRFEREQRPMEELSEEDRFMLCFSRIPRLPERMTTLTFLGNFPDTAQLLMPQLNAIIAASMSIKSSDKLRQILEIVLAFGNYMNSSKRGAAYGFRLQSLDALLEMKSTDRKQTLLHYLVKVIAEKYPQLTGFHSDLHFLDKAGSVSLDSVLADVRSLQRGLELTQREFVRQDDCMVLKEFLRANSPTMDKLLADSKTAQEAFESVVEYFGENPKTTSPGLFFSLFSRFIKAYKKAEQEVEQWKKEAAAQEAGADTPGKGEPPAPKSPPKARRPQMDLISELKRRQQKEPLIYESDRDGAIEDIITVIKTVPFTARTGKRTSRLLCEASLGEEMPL
UniProt Q96CD0: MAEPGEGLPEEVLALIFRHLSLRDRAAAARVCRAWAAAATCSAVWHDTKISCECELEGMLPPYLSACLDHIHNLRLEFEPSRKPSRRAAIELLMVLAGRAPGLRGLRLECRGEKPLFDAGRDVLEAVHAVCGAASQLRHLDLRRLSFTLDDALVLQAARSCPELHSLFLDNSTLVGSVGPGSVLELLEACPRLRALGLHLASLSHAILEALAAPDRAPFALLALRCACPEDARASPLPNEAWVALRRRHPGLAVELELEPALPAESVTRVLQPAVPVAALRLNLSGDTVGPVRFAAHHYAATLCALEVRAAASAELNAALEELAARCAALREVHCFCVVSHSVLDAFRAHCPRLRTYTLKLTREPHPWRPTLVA

What was measured:
Assay in all cases: log2 fold change, soluble protein after heating vs DMSO (PISA); higher = thermal stabilisation; K562 cells, 10 uM, 30 min; active = over 0.2 and 3.5 SD of the protein, either way, in both replicates (recomputed)
nilotinib = compound: Cc1cn(-c2cc(NC(=O)c3ccc(C)c(Nc4nccc(-c5cccnc5)n4)c3)cc(C(F)(F)F)c2)cn1 [nilotinib]
In short: (§1)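 Quantification of soluble protein used TMTpro 16plex LC-MS/MS, with channel sums equalised. Samples were the supernatant after 21,000xg for 90 min of pooled aliquots from K562 cells (2×10^6 cells/mL) treated with 10 μM compound for 30 min, heated for 3 min over 48°C-58°C, and extracted in PBS with 0.5% NP-40 at 4°C. Values, from duplicates, describe thermal stability against control samples on a log2 fold-change scale.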

[1] = compound: Cc1nc(Nc2n[nH]c3c2CN(C(=O)N[C@H](CN(C)C)c2ccccc2)C3(C)C)c2sccc2n1
In short: as §1

[2] = compound: Cc1ncc(-c2ccnc(Nc3ccc(S(C)(=O)=O)cc3)n2)n1C(C)C
In short: as §1

[3] = compound: Cn1cc(-c2ccc3nnc(C(F)(F)c4ccc5ncccc5c4)n3n2)cn1
In short: as §1

[4] = compound: NC(=O)c1cnc(N[C@@H]2CCCC[C@@H]2N)nc1Nc1cccc(-n2nccn2)c1
In short: as §1

[5] = compound: O=C1NC(=O)C(c2cnc3ccccn23)=C1c1cn2c3c(cc(F)cc13)CN(C(=O)N1CCCCC1)CC2
In short: as §1

[6] = compound: Cc1cccc(CC(=O)N2CCc3c2ccc(-c2cn(C)c4ncnc(N)c24)c3F)n1
In short: as §1

dasatinib = compound: Cc1nc(Nc2ncc(C(=O)Nc3c(C)cccc3Cl)s2)cc(N2CCN(CCO)CC2)n1 [dasatinib]
In short: as §1

[7] = compound: Cn1cc(-c2ccc3c(c2)CCN3C(=O)Cc2cccc(C(F)(F)F)c2)c2c(N)ncnc21
In short: as §1

tipifarnib = compound: Cn1cncc1[C@@](N)(c1ccc(Cl)cc1)c1ccc2c(c1)c(-c1cccc(Cl)c1)cc(=O)n2C [tipifarnib]
In short: as §1

[8] = compound: NC(=O)Nc1cc(-c2cccc(F)c2)sc1C(=O)N[C@H]1CCCNC1
In short: as §1

entinostat = compound: Nc1ccccc1NC(=O)c1ccc(CNC(=O)OCc2cccnc2)cc1 [entinostat]
In short: as §1

vorinostat = compound: O=C(CCCCCCC(=O)Nc1ccccc1)NO [vorinostat]
In short: as §1

citarinostat = compound: O=C(CCCCCCNC(=O)c1cnc(N(c2ccccc2)c2ccccc2Cl)nc1)NO [citarinostat]
In short: as §1

[9] = compound: c1cc(OCCN2CCCCC2)cc(-c2n[nH]c3ccc(-c4nnc[nH]4)cc23)c1
In short: as §1

[10] = compound: NCC(=O)Nc1ccc(-n2nc(C(F)(F)F)cc2-c2ccc3c(ccc4ccccc43)c2)cc1
In short: as §1

bafetinib = compound: Cc1ccc(NC(=O)c2ccc(CN3CC[C@H](N(C)C)C3)c(C(F)(F)F)c2)cc1Nc1nccc(-c2cncnc2)n1 [bafetinib]
In short: as §1

mubritinib = compound: FC(F)(F)c1ccc(/C=C/c2nc(COc3ccc(CCCCn4ccnn4)cc3)co2)cc1 [mubritinib]
In short: as §1

[11] = compound: NC1(c2ccc(-c3nc4ccn5c(=O)[nH]nc5c4cc3-c3ccccc3)cc2)CCC1
In short: as §1

silmitasertib = compound: O=C(O)c1ccc2c(c1)nc(Nc1cccc(Cl)c1)c1ccncc12 [silmitasertib]
In short: as §1

Measured: log2 fold change

FBRSL1 (UniProt Q9HCM7)
inactive: nilotinib 0.111 | [1] -0.006 | [2] -0.189 | [3] -0.07 | [4] -0.1 | [5] -0.036

FCHSD1 (UniProt Q86WN1)
inactive: [6] -0.008 | dasatinib -0.071 | [7] 0.154 | [3] 0.194 | tipifarnib -0.191 | [8] 0.03 | [4] -0.186 | entinostat -0.006 | vorinostat -0.008 | citarinostat 0.277 | [5] 0.01 | [9] 0.116

FANCL isoform 2 (UniProt Q9NW38)
inactive: [7] 0.104 | [4] -0.098 | [10] 0.094

FAM86B2 (UniProt P0C5J1)
inactive: [8] -0.072 | entinostat 0.055

Retrieved one by one from the entries so far, 2 records:
FANCL isoform 2 (UniProt Q9NW38)
inactive: [7] 0.104 | [4] -0.098 | [10] 0.094

FCHSD1 (UniProt Q86WN1)
inactive: [6] -0.008 | dasatinib -0.071 | [7] 0.154 | [3] 0.194 | tipifarnib -0.191 | [8] 0.03 | [4] -0.186 | entinostat -0.006 | vorinostat -0.008 | citarinostat 0.277 | [5] 0.01 | [9] 0.116

Next part

FLT1 (UniProt P17948)
inactive: tipifarnib 0.197 | [10] -0.388 | citarinostat -0.16 | [9] -0.053

FBXO2 (UniProt Q9UK22)
inactive: [6] 0.051 | vorinostat 0.104

FBRS (UniProt J3KNZ9)
inactive: [6] -0.208 | nilotinib -0.177 | [1] 0.211 | [2] -0.008 | [7] -0.38 | tipifarnib 0.203 | [8] 0.683 | [4] 0.084 | [10] -0.169 | entinostat 0.154 | vorinostat 0.099 | [5] 0.3

FBXO33 (UniProt Q7Z6M2)
inactive: bafetinib 0.074 | [5] -0.107

FBXL4 (UniProt Q9UKA2)
inactive: [6] 0 | dasatinib -0.12 | mubritinib -0.071 | [8] 0.483 | [11] 0.971 | [10] -0.059 | entinostat -0.012 | vorinostat 0.111 | silmitasertib -0.149 | [5] -0.604

FGFR1OP2 isoform 2 (UniProt Q9NVK5)
inactive: [7] -0.064 | tipifarnib 0.034

FNBP1 (UniProt Q96RU3)
inactive: dasatinib -0.414 | [4] -0.129

FAM219B (UniProt Q5XKK7)
inactive: [6] -0.181 | tipifarnib 0.062 | mubritinib -0.008 | [8] 0.037 | [11] -0.025 | entinostat 0.17 | vorinostat -0.072 | silmitasertib -0.006

FIG4 (UniProt Q92562)
inactive: tipifarnib 0.167

FNDC3A (UniProt Q9Y2H6)
inactive: citarinostat -0.141 | [9] -0.191

FMR1NB (UniProt Q8N0W7)
inactive: [4] 0.028 | [5] 0.417

FAM53B (UniProt Q14153)
inactive: dasatinib -0.155 | [3] 0.146 | mubritinib 0.009 | [11] -0.155 | [10] -0.229 | citarinostat 0.32 | silmitasertib -0.231 | [5] -0.09 | [9] -0.111

FLCN (UniProt Q8NFG4)
inactive: [6] -0.171 | nilotinib -0.166 | [1] 0.114 | dasatinib 0.031 | [2] 0.141 | [7] -0.046 | [3] 0.044 | mubritinib 0.021 | [8] 0.014 | [4] 0.013 | [11] -0.059 | [10] -0.006 | entinostat 0.04 | vorinostat 0.019 | silmitasertib 0.122 | [5] 0.015

FMNL1 isoform 3 (UniProt O95466)
inactive: bafetinib 0.288 | [8] -0.612 | [4] 0.551 | entinostat 0.377 | [5] 0.27

FAT4 (UniProt Q6V0I7)
inactive: [6] 0.049 | nilotinib -0.104 | [1] 0.027 | [2] -0.075 | [3] 0.257 | mubritinib -0.002 | [8] -0.127 | [4] -0.072 | [11] -0.059 | [10] -0.088 | entinostat -0.049 | vorinostat 0.013 | citarinostat -0.025 | silmitasertib -0.075 | [9] -0.017

FBXL8 (UniProt Q96CD0)
inactive: bafetinib 0.024 | [7] -0.062 | [8] 0.021 | entinostat 0.153 | citarinostat 0.071 | [5] 0.057 | [9] 0.048
